# From article PMC7093153 (eLife, 2020)
# These are yes or no findings as the source states them, for the method shown. Some binding calls cover weakened binding; strength is not graded here.
# T1: Sfr1N (N-terminal half of Sfr1, residues 1-176) (S. pombe) (UniProt Q9USV1)
# T1 sequence (chain, uniformly 15N-labeled): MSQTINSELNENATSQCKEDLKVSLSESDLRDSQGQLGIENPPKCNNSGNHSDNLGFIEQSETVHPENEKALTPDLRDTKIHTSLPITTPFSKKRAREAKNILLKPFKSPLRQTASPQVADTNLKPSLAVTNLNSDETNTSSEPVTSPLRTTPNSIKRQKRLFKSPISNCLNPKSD
# T2: Sfr1 (full-length, wild type) (S. pombe) (UniProt Q9USV1)
# T2 sequence: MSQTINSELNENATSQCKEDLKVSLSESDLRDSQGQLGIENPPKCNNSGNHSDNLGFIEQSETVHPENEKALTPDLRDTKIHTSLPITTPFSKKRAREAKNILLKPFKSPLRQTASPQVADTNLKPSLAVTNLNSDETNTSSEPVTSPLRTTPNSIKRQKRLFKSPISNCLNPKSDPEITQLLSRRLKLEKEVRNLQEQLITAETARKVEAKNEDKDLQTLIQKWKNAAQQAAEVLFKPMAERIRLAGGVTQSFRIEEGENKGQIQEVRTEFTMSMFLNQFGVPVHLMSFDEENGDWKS
# Assays:
# [1] = molecular target: T1, Sfr1N (N-terminal half of Sfr1, residues 1-176) (S. pombe); test: NMR titration
# [2] = molecular target: T2, Sfr1 (full-length, wild type) (S. pombe); test: co-purification
binding [1],binding [2],Binder
binds weakly,–,"Rad51 (S. pombe), purified (natural protein, UniProt P36601 1-365, looked up) MADTEVEMQVSAADTNNNENGQAQSNYEYDVNVQDEEDEAAAGPMPLQMLEGNGITASDIKKIHEAGYYTVESIAYTPKRQLLLIKGISEAKADKLLGEASKLVPMGFTTATEYHIRRSELITITTGSKQLDTLLQGGVETGSITELFGEFRTGKSQICHTLAVTCQLPIDMGGGEGKCLYIDTEGTFRPVRLLAVADRYGLNGEEVLDNVAYARAYNADHQLELLQQAANMMSESRFSLLVVDSCTALYRTDFSGRGELSARQMHLARFMRTLQRLADEFGIAVVITNQVVAQVDGISFNPDPKKPIGGNILAHSSTTRLSLRKGRGEQRICKIYDSPCLPESEAIFAINSDGVGDPKEIIAPV"
–,binds,"Swi5 (protein, UniProt Q9UUB7 1-85) MEKSQLESRVHLLEQQKEQLESSLQDALAKLKNRDAKQTVQKHIDLLHTYNEIRDIALGMIGKVAEHEKCTSVELFDRFGVNGSE"
